PubChem BioAssay AID504808, Drosophila RNAi Screening Center, 2011
The screen tested about 21,000 reagents; this is an unselected part of those with a known target gene and a result. Of all reagents, 18 (0.084%) got an active call. 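Raw counts without plate normalisation, one of two replicates; the ratio scores behind the calls were not deposited.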 Unmarked entries are inactive. A plus sign joins genes that one reagent is predicted to hit. Not stated in the record: the amount of reagent, the time to read-out.

Purpose: 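Genes whose loss lifts activity of an E2F-responsive reporter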 (primary screen)
Cells: Drosophila S2 cells
Knock-down reagent: long dsRNA against Drosophila genes
Detection: 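Dual luciferase plate measurements; E2F-specific signal taken as firefly over Renilla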
Scale: E2F firefly: higher = more E2F reporter activity; Renilla normaliser: higher = more normaliser reporter signal
Hit rule: 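a knock-down counted as active when the firefly/Renilla E2F signal rose above 50%, a threshold chosen arbitrarily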

target gene,DRSC id,"E2F firefly, rep 1","Renilla normaliser, rep 1"
CG7381,DRSC16238,75122,3914
CG11141,DRSC06048,89480,3625
Vsp37A,DRSC18794,1.19e5,5645
CG13144,DRSC02241,1.61e5,5460
upd3,DRSC19636,1.54e5,7886
upd3,DRSC19968,1.62e5,7242
alpha-Est3,DRSC12615,76923,3304
VhaAC45RP,DRSC15423,50171,3481
Aldh,DRSC02717,1.58e5,5465
UbcE2M,DRSC10828,64455,3305
CG13717 (retired record),DRSC08116,55569,3387
CG13717 (retired record),DRSC08324,96922,3950
CG13717 (retired record),DRSC08326,87144,3641
CG34225,DRSC05270,1.27e5,5150
E(spl)m3-HLH,DRSC16694,71017,4705
CG14759,DRSC06494,1.55e5,5585
CG13850,DRSC14700,69361,4223
CG4230,DRSC02740,87606,4141
bves,DRSC20520,1.37e5,7021
bves,DRSC20554,1.30e5,8287
bves,DRSC20555,1.29e5,6989
CG8160,DRSC07086,1.01e5,3930
bsf,DRSC02035,83027,3500
CG13038,DRSC09919,1.68e5,6443
Or22b,DRSC00765,1.79e5,6757
bon,DRSC16914,1.63e5,7310
sm,DRSC05795,1.81e5,6369
sm,DRSC07686,66108,3056
Rep,DRSC07526,72915,3307
CG13678,DRSC10036,57729,3458
mtgo,DRSC02245,96692,4089
mtgo,DRSC02246,73035,3324
mtgo,DRSC02769,87968,3680
Hex-C,DRSC07079,1.00e5,3940
CG12147,DRSC12192,1.30e5,6358
edl,DRSC06516,72726,3422
eIF4A,DRSC03526,1.24e5,5382

Ordered by “Renilla normaliser, rep 1” (low to high): some entries from above
target gene,DRSC id,"E2F firefly, rep 1","Renilla normaliser, rep 1"
sm,DRSC07686,66108,3056
Rep,DRSC07526,72915,3307
mtgo,DRSC02246,73035,3324
edl,DRSC06516,72726,3422
CG13678,DRSC10036,57729,3458
mtgo,DRSC02769,87968,3680
Hex-C,DRSC07079,1.00e5,3940
mtgo,DRSC02245,96692,4089
CG12147,DRSC12192,1.30e5,6358
sm,DRSC05795,1.81e5,6369

The list goes on.
target gene,DRSC id,"E2F firefly, rep 1","Renilla normaliser, rep 1"
CG42490 (retired record),DRSC01649,1.62e5,5760
BomBc2,DRSC06502,1.40e5,5518
tbrd-3,DRSC04295,1.05e5,4523
CG5386,DRSC15788,1.10e5,5851
l(2)k05911,DRSC02523,53151,3316
CG9632,DRSC16528,1.09e5,5909
CG34297,DRSC12410,72435,3578
Vps50,DRSC06910,76344,3094
Ir7c,DRSC18007,65782,4469
brp,DRSC06245,1.48e5,5090
brp,DRSC06246,1.54e5,5465
brp,DRSC06801,1.36e5,5070
salm,DRSC03606,1.37e5,5041
CG6607,DRSC16073,1.01e5,5907
Ir76a,DRSC10987,70637,3459
Ate1,DRSC05925,83302,3253
Osi2,DRSC12174,1.24e5,6800
CG7714,DRSC16300,1.50e5,8066
CG4607,DRSC18375,1.14e5,6475
hrm,DRSC04853,1.15e5,5085
CG14795,DRSC18513,1.23e5,6398
CG11927,DRSC00337,92155,3595
CG1492,DRSC19605,56733,4555
Pif1A + Pif1B,DRSC14142,1.23e5,6379
Pif1A + Pif1B,DRSC14380,72987,3679
Pif1A + Pif1B,DRSC14381,1.37e5,7193
yuri,DRSC01453,1.28e5,5522
yuri,DRSC01454,1.33e5,4869
yuri,DRSC01943,1.05e5,4426
yuri,DRSC01972,88181,3821
CG11696,DRSC19417,8032,716
Grx5,DRSC19593,2.11e5,10064
CG8323,DRSC07149,97361,4064
Pez,DRSC03397,1.55e5,5669
CG13872,DRSC06431,1.30e5,5108
CG31050,DRSC13883,91104,2748
CG9921,DRSC20220,49553,3698
CG3662,DRSC00626,97518,3453
CG14540,DRSC14884,98380,6647
CG33673,DRSC00084,1.32e5,5685
CG1791,DRSC18141,7611,780
CG7484,DRSC10853,1.49e5,8784
vir-1,DRSC02501,95119,4093
vir-1,DRSC02863,89973,4738
CG30429,DRSC04040,1.35e5,5539
Dh31,DRSC02196,1.46e5,5001
CG2059,DRSC18203,43218,3982
